Article doi:10.1101/2023.01.22.525045
These are yes or no findings as the source states them, for the method shown. Binding seen in cells or lysates may run through a third protein. Some entries that bind do so weakly or less than the wild type.

Chains of the proteins cited; added tags and fusions are not shown. Lines headed by an entry give the natural chain unless they say otherwise; changes in a name come on top. A line that says so, or that is headed by a name, gives the form on record, which may keep a tag or linker.
UniProt P05787: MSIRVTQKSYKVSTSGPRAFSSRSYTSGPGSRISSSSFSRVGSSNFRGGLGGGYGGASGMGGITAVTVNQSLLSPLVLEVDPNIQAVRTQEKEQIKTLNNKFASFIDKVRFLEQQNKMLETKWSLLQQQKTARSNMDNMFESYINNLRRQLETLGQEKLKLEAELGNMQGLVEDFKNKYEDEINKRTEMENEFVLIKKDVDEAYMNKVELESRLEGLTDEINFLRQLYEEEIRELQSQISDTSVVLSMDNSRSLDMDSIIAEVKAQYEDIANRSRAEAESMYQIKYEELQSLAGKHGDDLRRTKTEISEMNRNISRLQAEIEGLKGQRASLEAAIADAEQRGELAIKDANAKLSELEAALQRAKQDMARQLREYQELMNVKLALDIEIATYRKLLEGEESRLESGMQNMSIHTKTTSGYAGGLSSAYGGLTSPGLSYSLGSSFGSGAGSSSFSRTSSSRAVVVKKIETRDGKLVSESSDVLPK
S34-37A K8-GFP (P05787, form named): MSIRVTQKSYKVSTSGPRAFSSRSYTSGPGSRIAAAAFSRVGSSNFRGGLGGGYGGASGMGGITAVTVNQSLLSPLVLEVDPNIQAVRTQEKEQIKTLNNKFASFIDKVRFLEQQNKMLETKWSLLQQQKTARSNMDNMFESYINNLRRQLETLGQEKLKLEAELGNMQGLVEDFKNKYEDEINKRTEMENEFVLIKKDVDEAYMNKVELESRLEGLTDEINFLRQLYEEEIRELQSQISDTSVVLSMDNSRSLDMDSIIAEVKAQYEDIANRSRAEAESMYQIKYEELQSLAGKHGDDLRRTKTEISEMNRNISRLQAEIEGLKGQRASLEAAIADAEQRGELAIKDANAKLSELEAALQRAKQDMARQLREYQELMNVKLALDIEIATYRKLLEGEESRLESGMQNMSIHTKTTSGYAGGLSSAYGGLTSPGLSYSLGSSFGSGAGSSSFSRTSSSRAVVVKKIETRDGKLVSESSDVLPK
S34-37D K8-GFP (P05787, form named): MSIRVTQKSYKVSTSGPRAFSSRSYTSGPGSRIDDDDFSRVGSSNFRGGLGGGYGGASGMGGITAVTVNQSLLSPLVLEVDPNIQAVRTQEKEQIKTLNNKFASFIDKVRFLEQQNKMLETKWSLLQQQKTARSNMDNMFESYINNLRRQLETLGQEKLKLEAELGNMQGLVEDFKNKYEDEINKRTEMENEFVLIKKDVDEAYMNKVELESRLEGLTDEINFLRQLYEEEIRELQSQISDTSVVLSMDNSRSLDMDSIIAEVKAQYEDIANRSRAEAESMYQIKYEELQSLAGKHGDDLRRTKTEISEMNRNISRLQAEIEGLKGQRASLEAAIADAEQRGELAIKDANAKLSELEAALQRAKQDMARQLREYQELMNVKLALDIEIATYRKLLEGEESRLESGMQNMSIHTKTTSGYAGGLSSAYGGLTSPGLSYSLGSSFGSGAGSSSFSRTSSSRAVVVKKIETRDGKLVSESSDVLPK
UniProt Q96GD4: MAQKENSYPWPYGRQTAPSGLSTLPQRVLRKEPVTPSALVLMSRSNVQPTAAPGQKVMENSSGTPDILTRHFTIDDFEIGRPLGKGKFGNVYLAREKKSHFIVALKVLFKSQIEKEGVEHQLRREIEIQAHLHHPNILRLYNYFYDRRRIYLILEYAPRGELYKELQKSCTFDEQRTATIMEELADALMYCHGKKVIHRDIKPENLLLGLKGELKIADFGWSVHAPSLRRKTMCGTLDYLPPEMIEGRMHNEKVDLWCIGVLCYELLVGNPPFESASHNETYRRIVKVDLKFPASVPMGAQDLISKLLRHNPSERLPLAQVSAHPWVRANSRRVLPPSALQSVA

Assays:
Assay in all cases: co-IP
S34-37A K8-GFP = S34-37A K8-GFP (UniProt P05787)
S34-37D K8-GFP = S34-37D K8-GFP (UniProt P05787)
WT K8-GFP = WT K8-GFP (UniProt P05787)

- binding (S34-37A K8-GFP): binds
- binding (S34-37D K8-GFP): binds
- binding (WT K8-GFP): binds
Substance: Aurora B (from UniProt Q96GD4 1-344) (enzyme)
